Assay results published in publication PMC5225316.
No constants are given. Whether binding was seen depends on the method and setting. Some entries that bind do so weakly or less than the wild type.

By UniProt entry, the sequences of proteins in these tests, tags left out. Where a name states a change or a piece, a line headed by the entry shows the natural chain unless it says otherwise. Chains listed by the source or under a name are the forms on record and can include a tag or linker.
His6-tagged human PML protein (isoform III) (P29590-9, form named): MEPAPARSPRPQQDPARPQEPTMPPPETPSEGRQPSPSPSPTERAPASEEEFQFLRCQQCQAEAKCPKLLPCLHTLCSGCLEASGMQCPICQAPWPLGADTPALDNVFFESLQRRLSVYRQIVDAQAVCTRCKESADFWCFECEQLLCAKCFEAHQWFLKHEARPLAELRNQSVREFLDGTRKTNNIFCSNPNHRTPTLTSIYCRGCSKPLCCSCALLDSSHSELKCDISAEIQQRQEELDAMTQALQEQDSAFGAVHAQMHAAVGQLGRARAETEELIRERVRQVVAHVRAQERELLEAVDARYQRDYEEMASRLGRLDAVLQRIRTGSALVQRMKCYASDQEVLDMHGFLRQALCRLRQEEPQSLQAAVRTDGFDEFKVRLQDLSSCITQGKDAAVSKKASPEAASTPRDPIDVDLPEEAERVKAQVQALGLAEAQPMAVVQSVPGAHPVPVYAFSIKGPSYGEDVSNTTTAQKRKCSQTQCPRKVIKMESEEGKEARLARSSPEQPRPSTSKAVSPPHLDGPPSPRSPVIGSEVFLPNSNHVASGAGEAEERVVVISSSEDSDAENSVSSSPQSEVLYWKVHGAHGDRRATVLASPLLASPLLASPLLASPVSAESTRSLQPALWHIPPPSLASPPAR

Molecular target: His6-tagged human PML protein (isoform III) (human) (UniProt P29590)
Test: non-reducing SDS-PAGE and immunoblot

binding: binds
Substance: His6-tagged human PML protein (isoform III) (from UniProt P29590-9 1-641)
